{"source": "PubChem BioAssay AID485314", "about": "(National Center for Advancing Translational Sciences (NCATS), 2010)", "note": "Hit rate of the full screen: of about 340,000 compounds, about 4,500 (1.3%) were called active. The shares of active, inactive and inconclusive entries below differ from those in the screen. Calls come from the whole dose curve; as a rule, active = well fitted inhibition curve with a large enough effect; inconclusive = small, poorly fitted or top-dose-only effect, or another doubt; inactive = no such curve, though single readings can be large or run the other way. Potencies beside an inconclusive call are fits to weak or partial responses and may not hold up. % is set by controls: 0 for no effect and ±100 for the full control effect; potency is the fitted concentration of half-maximal effect.", "data": [{"biological_target": "DNA polymerase beta (Homo sapiens) (UniProt P06746)", "assay": "qHTS Assay for Inhibitors of DNA Polymerase Beta", "conditions": "Pol beta primer extension/strand displacement, fluorescence kinetic; activity change, negative = inhibition: at 114 µM (top of the series)", "summary_of_the_method": "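Pol beta (10 nM) was preincubated with compound for 15 min at room temperature. The reaction was then started with 50 nM substrate and read immediately and after a further 10 min at room temperature.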", "values": [{"smiles": "Cc1ccc(C)c(NC(=O)CN(CCc2ccccc2)S(=O)(=O)c2ccccc2)c1", "activity change, negative = inhibition": "inactive: 18.5%"}, {"smiles": "COc1cc(NC(=O)c2ccccc2NS(=O)(=O)c2ccc(Cl)s2)cc(OC)c1", "Potency": "inconclusive: 39.8 µM [inhibitor, single point]"}, {"smiles": "C=CCn1c(COc2ccccc2-c2ccccc2)nnc1SCC(=O)NC(=O)NCc1ccco1", "activity change, negative = inhibition": "inactive: -15.4%"}, {"smiles": "Cc1c(-c2nsc(NC(=O)c3cccs3)n2)nnn1-c1ccc(Br)cc1", "Potency": "active: 3.16 µM"}, {"smiles": "COc1ccccc1-n1c(=O)c2c3c(sc2n2c(SC(C)C)nnc12)CCC3", "Potency": "inconclusive: 2.24 µM [inhibitor, partial curve]"}, {"smiles": "CC(C)Cc1ccc(C(=O)NCc2ccc3c(c2)OCO3)o1", "Potency": "inconclusive: 10 µM [inhibitor, partial curve]"}, {"smiles": "CCCc1cc(=O)n2[nH]c(NCc3ccccc3OC)nc2n1", "activity change, negative = inhibition": "inactive: 20.6%"}, {"smiles": "O=C(Nc1ccc(S(=O)(=O)Nc2ccccn2)cc1)c1cccc(Cl)c1", "Potency": "inconclusive: 89.1 µM [inhibitor, single point]"}, {"smiles": "O=c1[nH][nH]c2ccccc2c1=O", "Potency": "inconclusive: 39.8 µM [inhibitor, partial curve]"}, {"smiles": "COc1cc(/C=C/C(=O)c2ccc3c(c2)OCO3)cc(Cl)c1O", "Potency": "active: 39.8 µM"}, {"smiles": "Cc1nnc(SCC(=O)Nc2sc3c(c2C(N)=O)CCCC3)[nH]c1=O", "Potency": "inconclusive: 44.7 µM [inhibitor, partial curve, poor fit]"}, {"smiles": "CCCc1nc2ccccc2n2c(-c3cccc(C)c3)c3c(=O)n(C)c(=O)n(C)c3c12", "activity change, negative = inhibition": "inactive: 13.8%"}, {"smiles": "Cc1ccc(C)c(NC(=O)NNC(=O)c2cc3occc3[nH]2)c1", "Potency": "inconclusive: 89.1 µM [inhibitor, single point]"}, {"smiles": "CCCOc1cccc(-c2cc(-c3n[nH]c(=S)n3CC)c3ccccc3n2)c1", "activity change, negative = inhibition": "inactive: 17.8%"}, {"smiles": "Cc1ccc(C(=O)Nc2cc3c(cc2N2CCCC2)n(C)c(=O)c(=O)n3C)cc1", "Potency": "inconclusive: 89.1 µM [inhibitor, single point]"}, {"smiles": "COc1ccc(OC)c(S(=O)(=O)CC(=O)c2cc3ccc(OC)cc3oc2=O)c1", "Potency": "inconclusive: 11.2 µM [inhibitor, single point]"}, {"smiles": "C#CCOCCOCCOCCNc1nc(N2CCN(C(=O)[C@H](Cc3ccc(O)cc3)n3cc([C@@H](N)C(C)CC)nn3)CC2)nc(N2CCN(C(=O)[C@H](Cc3cc4ccccc4[nH]3)n3cc([C@@H](N)CC(C)C)nn3)CC2)n1", "note": "(stereo not given in full)", "Potency": "active: 28.2 µM"}, {"smiles": "CCCn1c(SCC(=O)Nc2ccc(S(=O)(=O)N(C)C)cc2)n[nH]c1=O", "Potency": "inconclusive: 89.1 µM [inhibitor, single point]"}, {"smiles": "O=C(Cc1ccc(Br)cc1)Nc1ncc([N+](=O)[O-])s1", "activity change, negative = inhibition": "inconclusive: -53.3% [inhibitor]"}, {"smiles": "COc1ccc2cc(Br)ccc2c1CC(=O)N(C)C", "Potency": "inconclusive: 10 µM [inhibitor, partial curve]"}, {"smiles": "O=C(N/N=C/c1ccc(O)c(O)c1)N/N=C/c1ccc(O)c(O)c1", "Potency": "active: 0.316 µM"}, {"smiles": "Cc1cc(NS(=O)(=O)c2ccc(NC(=O)C(C)Oc3cc(C)c(Cl)c(C)c3)cc2)no1", "note": "(stereo not given)", "Potency": "inconclusive: 0.158 µM [inhibitor, full curve, poor fit]"}, {"smiles": "O=C(NC1CCSc2ccccc21)c1cccc(Cl)c1", "note": "(stereo not given)", "activity change, negative = inhibition": "inconclusive: -52% [inhibitor]"}, {"smiles": "CCN(CC)S(=O)(=O)c1ccc2oc(SCc3ccc(F)cc3)nc2c1", "Potency": "inconclusive: 2.51 µM [inhibitor, partial curve]"}, {"smiles": "Cc1ccc(-n2nc3cc(C)c(NC(=S)NC(=O)/C=C/c4ccco4)cc3n2)cc1", "Potency": "active: 50.1 µM"}, {"smiles": "CC(C)(C)c1csc(NC(=O)c2ccncc2)n1", "activity change, negative = inhibition": "inactive: 4.15%"}, {"smiles": "Cc1ccccc1C(=O)NNC(=O)CSc1nnc(-c2ccncc2)n1-c1ccccc1", "Potency": "inconclusive: 89.1 µM [inhibitor, single point]"}, {"smiles": "Cc1cc(C)nc(NN2C(=O)/C(=C/c3ccccc3)SC2=S)n1", "activity change, negative = inhibition": "inactive: 6.4%"}, {"smiles": "Cc1ccc(/C=N/NC(=O)Cn2cnc3ccccc32)cc1", "Potency": "inconclusive: 39.8 µM [inhibitor, single point]"}, {"smiles": "Cc1cc(C)c2c(CC(=O)O)c(C)[nH]c2c1", "Potency": "inconclusive: 1.78 µM [inhibitor, full curve]"}, {"smiles": "CC(C)NC(=O)C1CCC(Cn2c(=O)c3sccc3n(CC(=O)NCc3ccccc3)c2=O)CC1", "note": "(stereo not given)", "Potency": "inconclusive: 89.1 µM [inhibitor, single point]"}, {"smiles": "C=CCN1C(=O)/C(=C/c2ccc(O)c(OC)c2)S/C1=N/c1nccs1", "activity change, negative = inhibition": "inactive: 0.695%"}, {"smiles": "CCOC(=O)C1=C(CS(=O)(=O)c2ccc(F)cc2)NC(=O)NC1c1ccc(O)c(O)c1", "note": "(stereo not given)", "activity change, negative = inhibition": "inconclusive: -34.3% [inhibitor]"}, {"smiles": "O=C(Oc1ccc(C(=S)N2CCOCC2)cc1)c1cc([N+](=O)[O-])cc([N+](=O)[O-])c1", "Potency": "inconclusive: 20 µM [inhibitor, single point]"}, {"smiles": "Cc1[nH]n(-c2ccccc2)c(=S)c1C=Nc1cccc([N+](=O)[O-])c1", "activity change, negative = inhibition": "inactive: 50.3%"}]}]}
